# In patent publication US20250163116A1, “NEW METHOD TO TREAT INFECTIOUS DISEASES” (INSERM (INSTITUT NATIONAL DE LA SANTÉ ET DE LA RECHERCHE …, priority 2022, published 2025):
# Results are given in words; binding and its absence hold for the method and conditions named. Binding seen in cells or lysates may run through a third protein. Some entries that bind do so weakly or less than the wild type.
# T1: Syndecan-4 (human) (UniProt P31431)
# T1 sequence (looked up): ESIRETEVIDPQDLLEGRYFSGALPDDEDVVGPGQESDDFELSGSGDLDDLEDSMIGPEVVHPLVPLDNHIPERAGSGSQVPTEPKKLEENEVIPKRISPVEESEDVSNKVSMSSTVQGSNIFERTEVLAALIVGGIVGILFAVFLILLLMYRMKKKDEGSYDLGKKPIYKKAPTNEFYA
# B1: ANGPTL4 produced by human endothelial cells (endogenous) (ligand)
# chain: GPVQSKSPRFASWDEMNVLAHGLLQLGQGLREHAERTRSQLSALERRLSACGSACQGTEGSTDLPLAPESRVDPEVLHSLQTQLKAQNSRIQQLFHKVAQQQRHLEKQHLRIQHLQSQFGLLDHKHLDHEVAKPARRKRLPEMAQPVDPAHNVSRLHRLPRDCQELFQVGERQSGLFEIQPQGSPPFLVNCKMTSDGGWTVIQRRHDGSVDFNRPWEAYKAGFGDPHGEFWLGLEKVHSITGDRNSRLAVQLRDWDGNAELLQFSVHLGGEDTAYSLQLTAPVAGQLGATTVPPSGLSVPFSTWDQDHDLRRDKNCAKSLSGGWWFGTCSHSNLNGQYFRSIPQQRQKLKKGIFWKTWRGRYYPLQATTMLIQPMAAEAAS
# Molecular target: T1, Syndecan-4 (human)
# Test: co-immunoprecipitation from endothelial cells infected by N. meningitidis
binder,measurement,value
B1,binding,binds
